PubChem BioAssay AID686938, Drosophila RNAi Screening Center, 2013

Assay: 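Looking for CRAC channel components and the factors controlling them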 (primary screen)
System: Drosophila S2R+ cells
Knock-down reagent: long dsRNA against Drosophila genes, about 0.25 µg dsRNA per well, roughly 10,000 cells
Time to read-out: 5 days of knock-down before the calcium assay
Conditions: thapsigargin (SERCA pump blocker) to empty calcium stores; entry signal taken 4 min after adding it
Measured: 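Per-well fluo-4 fluorescence in two replicates, unnormalised, measured in resting cells and 4 min after store depletion by the SERCA blocker thapsigargin; ratio of the two present in few wells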
Direction: calcium entry signal: higher = stronger calcium signal after store depletion; resting calcium signal: higher = higher resting calcium signal
Units: calcium entry signal in fluorescence units; resting calcium signal in fluorescence units
Call rule: 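Called when the plate z-score of the entry-to-rest ratio, mean of duplicates, falls below −3; wells with low overall dye signal (Fmax z below −2) or more than five off-targets excluded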
Calls: active = strongly reduced calcium entry; inactive = no strong reduction
The screen tested about 23,000 reagents; this is a random part of those that have a named target and a result. In the full data, 75 (0.33%) are marked active. 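Raw plate signals without normalisation; calls rest on plate z-scores that were not deposited; ratio present for only 364 wells.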 Reagents against one gene are numbered here. Names joined by + are all predicted targets of the reagent. Not stated in the record: the dose of the treatment.

CG18268 + CG3014 gave calcium entry signal, replicate 1 = 3.59e7; calcium entry signal, replicate 2 = 3.06e7; resting calcium signal, replicate 1 = 1.90e7; resting calcium signal, replicate 2 = 1.52e7; inactive.
With knock-down of Cyp4d8 (Cytochrome P450 4d8), the record shows calcium entry signal, replicate 1 = 4.40e7; calcium entry signal, replicate 2 = 3.42e7; resting calcium signal, replicate 1 = 2.96e7; resting calcium signal, replicate 2 = 1.59e7; inactive.
CG14879 gave calcium entry signal, replicate 1 = 3.61e7; calcium entry signal, replicate 2 = 5.01e7; resting calcium signal, replicate 1 = 1.84e7; resting calcium signal, replicate 2 = 7.54e7; inactive.
Kap-alpha3 (karyopherin alpha3) scored calcium entry signal, replicate 1 = 2.55e7; calcium entry signal, replicate 2 = 2.80e7; resting calcium signal, replicate 1 = 1.31e7; resting calcium signal, replicate 2 = 1.56e7; inactive.

2 entries from above, set out differently.
Gene	reagent	calcium entry signal, replicate 1	calcium entry signal, replicate 2	resting calcium signal, replicate 1	resting calcium signal, replicate 2	Call
CG14879	1	3.61e7	5.01e7	1.84e7	7.54e7	inactive
Kap-alpha3 (karyopherin alpha3)	1	2.55e7	2.80e7	1.31e7	1.56e7	inactive

Further entries:
Elp5 (Elongator complex protein 5) showed calcium entry signal, replicate 1 = 2.87e7; calcium entry signal, replicate 2 = 4.53e7; resting calcium signal, replicate 1 = 1.59e7; resting calcium signal, replicate 2 = 2.03e7; inactive.
CG12590 scored calcium entry signal, replicate 1 = 5.23e7; calcium entry signal, replicate 2 = 3.51e7; resting calcium signal, replicate 1 = 2.16e7; resting calcium signal, replicate 2 = 1.54e7; inactive.
aqz + CG9837 scored calcium entry signal, replicate 1 = 3.96e7; calcium entry signal, replicate 2 = 4.04e7; resting calcium signal, replicate 1 = 1.86e7; resting calcium signal, replicate 2 = 2.13e7; inactive.
Depletion of CG42445 came out at: calcium entry signal, replicate 1 = 4.71e7; calcium entry signal, replicate 2 = 5.05e7; resting calcium signal, replicate 1 = 2.88e7; resting calcium signal, replicate 2 = 2.08e7; inactive.
With knock-down of wdb (widerborst) the results were calcium entry signal, replicate 1 = 1.92e7; calcium entry signal, replicate 2 = 3.52e7; resting calcium signal, replicate 1 = 1.11e7; resting calcium signal, replicate 2 = 1.51e7; inactive.
Alp9 (Alkaline phosphatase 9) showed calcium entry signal, replicate 1 = 3.80e7; calcium entry signal, replicate 2 = 2.60e7; resting calcium signal, replicate 1 = 2.52e7; resting calcium signal, replicate 2 = 1.06e7; inactive.
Against Sox102F, the entry reads calcium entry signal, replicate 1 = 3.72e7; calcium entry signal, replicate 2 = 4.29e7; resting calcium signal, replicate 1 = 1.77e7; resting calcium signal, replicate 2 = 1.88e7; inactive.
Silencing of CG9674 #1 resulted in: calcium entry signal, replicate 1 = 2.17e7; calcium entry signal, replicate 2 = 3.41e7; resting calcium signal, replicate 1 = 1.22e7; resting calcium signal, replicate 2 = 2.38e7; inactive.
CG9674 #2 scored calcium entry signal, replicate 1 = 3.29e7; calcium entry signal, replicate 2 = 5.80e7; resting calcium signal, replicate 1 = 1.82e7; resting calcium signal, replicate 2 = 2.34e7; inactive.
With knock-down of wcy (wacky), the record shows calcium entry signal, replicate 1 = 2.94e7; calcium entry signal, replicate 2 = 2.07e7; resting calcium signal, replicate 1 = 1.37e7; resting calcium signal, replicate 2 = 1.06e7; inactive.
